Among all 320,000 compounds or so, about 22,000 (6.9%) were called active. Inconclusive means that the source gave no clear call. Such entries were picked first, then a sample of the others. The call rests on the fitted dose curve; in most records, active means well fitted inhibition curve with a large enough effect; inconclusive means small, poorly fitted or top-dose-only effect, or another doubt; inactive means no such curve, though single readings can be large or run the other way. Potencies beside an inconclusive call are fits to weak or partial responses and may not hold up.
test: Primary qHTS for delayed death inhibitors of the malarial parasite plastid, 96 hour incubation; conditions: P. falciparum luciferase reporter growth; series mostly up to 28.7 µM; activity change, negative = inhibition: at the top concentration
How it was run: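 P. falciparum expressing integrated firefly luciferase, in erythrocytes at 2% hematocrit, 0.05% parasitemia, incubated with compounds 96 h at 37 C, 5% CO2. Growth inhibition read as loss of luminescence; two-generation exposure targets delayed-death apicoplast inhibitors.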
On the % scale 0 is the no-effect control and ±100 the full control effect; potency means the concentration at half of the fitted maximal effect.

SMILES | activity change, negative = inhibition | Potency
COc1ccc(S(N)(=O)=O)cc1C(=O)OCC1CCCCC1 | inactive: -12.4% | 
O=C(CCNS(=O)(=O)c1cccc2nonc12)N1CCN(c2cccc(Cl)c2)CC1 |  | inconclusive: 7.38 µM [inhibitor, partial curve]
Cc1ccc(NC(=O)NCCc2ccc(S(N)(=O)=O)cc2)cc1 |  | inconclusive: 16.5 µM [inhibitor, partial curve]
O=c1oc2cc(O)ccc2c2c1CCCC2 | inactive: 126% | 
CC1(C)Cc2ccccc2/C(=C/C(=O)c2ccccc2)N1 |  | inconclusive: 18.5 µM [inhibitor, single point]
CC[C@@]12C(=O)N(c3ccc(C)cc3)C(=O)N1[C@H](c1ccc(Br)cc1)[C@@H]1C(=O)N(C(C)(C)C)C(=O)[C@@H]12 |  | inconclusive: 9.28 µM [inhibitor, single point]
CCS(=O)(=O)Nc1cccc(-c2cc(-c3ccccc3)c3cc(C)ccc3n2)c1 |  | inconclusive: 0.0928 µM [inhibitor, full curve, poor fit]
CC(C)(O)c1[nH]c2cc(F)ccc2c1C(C)(C)O |  | inconclusive: 18.5 µM [inhibitor, single point]
O=c1[nH]c(=O)n(Cc2ccccc2)c2c1C(C(F)(F)F)(C(F)(F)F)N=C(c1ccco1)N2 |  | inconclusive: 9.28 µM [inhibitor, partial curve, poor fit]
Cc1nc2c(=O)n(-c3ccc(F)cc3F)nc(C)c2s1 |  | inconclusive: 18.5 µM [inhibitor, single point]
CCc1nnc(NC(=O)CN2CCN(c3nc(-c4ccccc4)cs3)CC2)s1 |  | active: 9.28 µM
O=C(NCC1OCCCN1S(=O)(=O)c1cc(F)ccc1F)C(=O)NC1CCCCCC1 (stereo not given) | inactive: -16.7% | 
CCN1CCN(CCCN(Cc2ccco2)C(=S)Nc2cc(Cl)ccc2C)CC1 |  | inconclusive: 11.7 µM [inhibitor, partial curve, poor fit]
CCOC(=O)C1CCN(c2c(C(=O)c3ccccc3)cnc3ccc(Cl)cc23)CC1 |  | inconclusive: 3.7 µM [inhibitor, single point]
Cc1cc(C)c2sc(N)nc2c1 | inactive: 2.33% | 
COC(=O)c1ccc(OCC(O)Cn2nnc3ccccc32)cc1 (stereo not given) |  | inconclusive: 4.15 µM [inhibitor, partial curve, poor fit]
O=C(Cn1ccc(NC(=O)OCc2ccccc2)nc1=O)NCC1CCCO1 (stereo not given) |  | inconclusive: 16.5 µM [inhibitor, single point]
COc1ccccc1-n1cnnc1SCC(=O)Nc1cc(C(C)(C)C)nn1-c1ccccc1 |  | inconclusive: 11.7 µM [inhibitor, single point]
COc1ccccc1N(CC(=O)N/N=C(\C)c1cccc(Br)c1)S(C)(=O)=O |  | inconclusive: 10.4 µM [inhibitor, single point]
O=C(COC(=O)CCCSc1nc2ccccc2[nH]1)NC(=O)NC1CCCC1 |  | inconclusive: 0.37 µM [inhibitor, partial curve, poor fit]
COC(=O)c1cn(NC(=O)c2cc(OC)cc(OC)c2)c(=O)c2ccccc12 | inactive: -23.3% | 
COc1ccc2c(C)cc(SCn3nnc4ccccc4c3=O)nc2c1 | inactive: 59.1% | 
Cn1nc([N+](=O)[O-])c(C(C#N)c2nc3ccccc3n2C)c(Cl)c1=O (stereo not given) | inactive: 4.3% | 

Single records, as listed above:
Cc1cc(C)c2sc(N)nc2c1 is listed with activity change, negative = inhibition: inactive: 2.33%
CCN1CCN(CCCN(Cc2ccco2)C(=S)Nc2cc(Cl)ccc2C)CC1 is listed with Potency: inconclusive: 11.7 µM [inhibitor, partial curve, poor fit]
CC(C)(O)c1[nH]c2cc(F)ccc2c1C(C)(C)O is listed with Potency: inconclusive: 18.5 µM [inhibitor, single point]

The results go on:

SMILES | activity change, negative = inhibition | Potency
Cc1cc(C)c(CN2CCC(n3nccc3NC(=O)c3ccccc3Cl)CC2)cc1C |  | inconclusive: 6.57 µM [inhibitor, partial curve]
Cc1nonc1C(=O)N/N=C/c1cccc(O)c1 |  | active: 2.08 µM
CCN(CC)c1ccc(CNCCc2ccccc2F)cc1 |  | active: 9.28 µM
Cc1nnc(CN(C)Cc2cn[nH]c2-c2ccc(-c3ccccc3)cc2)o1 |  | inconclusive: 18.5 µM [inhibitor, single point]
CSc1ccc(CN2CCC(n3nccc3NC(=O)CCCc3ccccc3)CC2)cc1 |  | inconclusive: 13.1 µM [inhibitor, single point]
CC(C)(C)CC(=O)N1CCN(c2ccc(S(=O)(=O)N3CCOCC3)cc2[N+](=O)[O-])CC1 |  | inconclusive: 11.7 µM [inhibitor, single point]
COc1ccc(S(=O)(=O)N2CCOCC2)cc1NC(=O)c1cccc(-n2cccc2)c1 |  | inconclusive: 13.1 µM [inhibitor, single point]
Nc1nc(N)nc(-c2ccccc2)n1 |  | inconclusive: 5.22 µM [inhibitor, partial curve, poor fit]
O=C(c1ccc(Cl)c(S(=O)(=O)N2CCCCCC2)c1)N1CCCC(C(F)(F)F)C1 (stereo not given) |  | inconclusive: 13.1 µM [inhibitor, single point]
O=C(CN(C(=O)CCC(=O)Nc1ccccn1)c1cccc(F)c1)NCc1ccc(F)cc1 |  | inconclusive: 10.4 µM [inhibitor, single point]
CCCCCC(=O)Nc1nc(C)c(-c2csc(Nc3cc(Cl)ccc3OC)n2)s1 |  | active: 3.7 µM
O=C(Nc1cccc(Cl)c1)c1ccc2c(=O)n3c(nc2c1)CCCCC3 |  | inconclusive: 13.1 µM [inhibitor, partial curve, poor fit]
CCCN1CCN(S(=O)(=O)c2ccc(-n3cnnn3)cc2)CC1 | inactive: -8.74% | 
O=C(Cc1ccccc1)N1CCN(Cc2cccc(Br)c2)CC1 | inactive: -25.5% | 
O=C(COC(=O)CNS(=O)(=O)c1ccc(F)c(F)c1F)NC1CC1 | inactive: 11.1% | 
CCCCn1c(N)c(N(CCOC)C(=O)COC(=O)c2cc(CC)c(C)s2)c(=O)[nH]c1=O |  | inconclusive: 16.5 µM [inhibitor, single point]
COCc1cc(=O)n2[nH]c(C(C)(C)C)cc2n1 | inactive: 35.8% | 
CCCCN(C(=O)c1cc2c(s1)CCCC2)c1c(N)n(CCC)c(=O)[nH]c1=O | inactive: 6.22% | 
Cc1ccc2c(Cl)c(C(=O)NCCc3ccccc3)sc2c1 |  | inconclusive: 16.5 µM [inhibitor, single point]
COc1ccc(NCc2ccsc2)cc1 | inactive: -29.6% | 
COc1cc(/C=N\NC(C)=O)ccc1OC/C=C/c1ccccc1 |  | inconclusive: 14.7 µM [inhibitor, partial curve]
NC(=O)CSc1nnnn1-c1ccc2c(c1)OCCO2 | inactive: 6.13% | 

From PubChem BioAssay AID504834 (National Center for Advancing Translational Sciences (NCATS), 2011)
